This assay concerns the target GST alone bound to glutathione-Sepharose. The experiment in a line: GST pull-down, 35S-labeled protein, SDS-PAGE and fluorography.

Results are given in words; binding and its absence hold for the method and conditions named.

B1: Full-length ARIP4 labeled with [35S]methionine by translation in vitro (protein)
chain: MSDESASGSDPDLDPDVELEDEEEEEEEEEVAVEEHDRDDEEGLLDDTSLEGMCGTEHAQLGEDGQRPPRCTSTTSSQSEPSEQLRHQGKILASEDPKKKRAQKPSHMRRNIRKLLREDQLEPVTKAAQQEELERRKRLEQQRKEYAAPIPTVPLEFLPEEIVLRASDGPQLPPRVLAQEVICLDSSSGSEDEKSSRDEVIELSSGEEDTLHIVDSSESVSEEDEEEEKGGTHVNDALNQHDALGRVLVNLNHPPEEENVFLAPQLARAVKPHQIGGIRFLYDNLVESLERFKTSSGFGCILAHSMGLGKTLQVISFIDVLFRHTPAKTVLAIVPVNTLQNWLAEFNMWLPAPEALPADSKPEEVQPRFFKVHILNDEHKTVASRAKVTADWVSEGGVLLMGYEMYRLLTLKKSLATSRPKKTKKRSHPVIIDLDEEDRQQEFRREFEKALCRPGPDVVICDEGHRIKNCQASTSQALKNIRSRRRVVLTGYPLQNNLIEYWCMVDFVRPDFLGTRQEFSNMFERPILNGQCIDSTPQDVRLMRYRSHVLHSLLEGFVQRRGHTVLKIHLPAKEENVILVRLSQIQRDLYTQFMDRFRDCGTSGWLGLNPLKAFCVCCKIWNHPDVLYEALQKENLANEQDLDVEELGSAGTSARCPPHGTKVKGEDSALPSSMGEATNSKFLQGVGFNPFQERGNNIVTYEWAKELLTNYQTGVLENSPKMVLLFHLIEESVKLGDKILVFSQSLSTLALIEEFLGKRDMPCLPGAEGQGTQKWVRNVSYFRLDGSTPAFERERLINQFNDPSNLTTWLFLLSTRAGCLGVNLIGANRVVVFDASWNPCHDAQAVCRVYRYGQKKPCHIYRLVADYTLEKKIYDRQISKQGMSDRVVDDLNPMLNFTRKEVENLLHFVEKEPAPQTSLDIKGIKESVLQLACLKYPHLITKEPFEHESLLLNRKDHKLTKAEKKAAKKSYEEDKRTSVPYTRPSYAQYYPASDQSLTSIPAFSQRNWQPTLKGDEKPVASVRPVQSTPIPMMPRHVPLSGGVSSASSTNTSMNFPINYLQRAGVLVQKVVTTTDIVIPGLNSSTDVQARINAGESIHIIRGTKGTYIRTSDGRIFAVRATGKPKAPEDGRMAASGSQGPSLASTSNGRHSASSPKAPDPEGLARPVSPDSPEIISELQQYADVAAARESRQSSPSISAALPGPPGQLMDNSTIPGTALGTEPCLGGHCLNSSLLVTGQPSGGRHPVLDLRGHKRKLATPSVTQESIRRRSRKGHLPAPVQPYEHGYPVSGGFAMPPVSLNHNLTTPFTSQAGENSLFMGSNPSYYQLSNLLADARLVFPVTTDPLVPAGPVSSSSTATSVTASNPSFMLNPSVPGMLPSYSLPFSQPLLSEPRMFAPFPSPGLPSNLSRGVSVYPGYMSPHAGYPAGGLLRSQVPPFDSHEVAEVGFSSNDDEDKDDDVIEVTGK
modifications: [35S]methionine label
B1: the binding entry is “no binding”.

Values taken from patent publication US20030077800A1 (HORMOS MEDICAL, published 2003).
